From publication PMC7819943, “Rice protein-binding microarrays: a tool to detect cis-acting elements near promoter regions in rice”
The list shows a part of the results.

target: T1, OsSMF1 (Oryza sativa, UniProt Q6ZLB0 1-436); assay: protein-binding microarray (RPBM); PBS, 2% BSA, 51.3 ng/ul salmon testes DNA, 50 uM zinc acetate, 200 nM TF, 25 C, 1 h; high values mean tight binding; details: protein: recombinant; tags: N-terminal polyhistidine and DsRed monomer fusion (pET32a); chain copies: 2; label: CyDye5-dUTP incorporated in the synthesized complementary strand; 3' TTTTT single-stranded linker to array surface; dsDNA, one strand shown
T1 sequence: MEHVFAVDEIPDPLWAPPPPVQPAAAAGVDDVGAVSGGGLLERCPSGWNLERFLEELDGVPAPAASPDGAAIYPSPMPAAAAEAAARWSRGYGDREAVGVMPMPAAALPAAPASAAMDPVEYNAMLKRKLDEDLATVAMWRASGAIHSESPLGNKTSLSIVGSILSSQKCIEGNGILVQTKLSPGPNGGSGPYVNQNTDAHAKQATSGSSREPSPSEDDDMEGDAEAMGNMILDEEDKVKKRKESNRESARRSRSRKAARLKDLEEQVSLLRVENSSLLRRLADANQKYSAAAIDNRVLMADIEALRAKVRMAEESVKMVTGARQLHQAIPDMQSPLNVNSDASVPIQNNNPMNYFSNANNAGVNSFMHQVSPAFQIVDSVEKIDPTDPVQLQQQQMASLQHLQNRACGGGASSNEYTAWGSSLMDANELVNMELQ
Method in brief: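 Transcription factors, each fused N-terminally to a polyhistidine tag and DsRed, were expressed in E. coli BL21-CodonPlus and purified on Ni–NTA. A custom Agilent array was made double-stranded by primer extension with Cy5-dUTP and blocked with 2% BSA. It was incubated with 200 nM protein in PBS, 2% BSA, salmon testes DNA and 50 µM zinc acetate at 25 °C for 1 h, then washed. The binding signal is per-feature fluorescence intensity (arbitrary units) read on an Axon 4000B scanner.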

| Sequence | binding signal |
| --- | --- |
| GCAGCGAGATCGAGATACCGAGAGACCACCTCACCTGCTTCGGAGTCACCTAGTGCAG | 3460 fluorescence intensity (a.u.) |
| CTTGAGATTGTAAACAGATGGCCATTGTCTGTTGTGTCAGCGGAGTCACCTAGTGCAG | 3970 fluorescence intensity (a.u.) |
| ATAATACATTAACATGCAGCATATCCTATAGGGGTTCTATCGGAGTCACCTAGTGCAG | 19300 fluorescence intensity (a.u.) |
| GAGAGTCGCCTTGTCAACATATGGCAGATGCAGCTGGTGCCGGAGTCACCTAGTGCAG | 61100 fluorescence intensity (a.u.) |
| GCGTCCTTCCAGTCGCCGGCTGGCATCACCGGCTTGTGCCCGGAGTCACCTAGTGCAG | 4010 fluorescence intensity (a.u.) |
| TTGTTCCTTGCTAATATATTGACGTGTAATTCTTTTATGCCGGAGTCACCTAGTGCAG | 9690 fluorescence intensity (a.u.) |
| TGTGTCCTACATGTGTCCTTATGTGTATATGACATGTGTGCGGAGTCACCTAGTGCAG | 7040 fluorescence intensity (a.u.) |
| AGGACGACGTTGACGACGCACTCGATGGTGAGGCGGTCGTCGGAGTCACCTAGTGCAG | 3740 fluorescence intensity (a.u.) |
| AGTTGCTCAATTGGTTTACCAATGACATAGTGTGTCACGCCGGAGTCACCTAGTGCAG | 5830 fluorescence intensity (a.u.) |
| TTCGTTACGAAATATAGAAGCTGAATTTGAACTTACATATCGGAGTCACCTAGTGCAG | 16400 fluorescence intensity (a.u.) |
| TAAAGGCCATTATAACGTGTATTGGAACAGTTATAACTGGCGGAGTCACCTAGTGCAG | 3640 fluorescence intensity (a.u.) |
| TAAGGGAGGCAGAGGGAGGAGGAAGAAGGGTCAGAGGGAGCGGAGTCACCTAGTGCAG | 5140 fluorescence intensity (a.u.) |
| GTCAAAACCGCCACGTAGACGCCACGTCATCGAAACCGCCCGGAGTCACCTAGTGCAG | 40400 fluorescence intensity (a.u.) |
| ATTGATCCTATCTTATGATGCTGATGCGTTGTGTAGGGGTCGGAGTCACCTAGTGCAG | 3920 fluorescence intensity (a.u.) |
| CATTGTTTATGTCAGTGCTGAGTGCTGACTGCTGAGGTATCGGAGTCACCTAGTGCAG | 4140 fluorescence intensity (a.u.) |
| CTCTCTCCCCTCGCCTCGCCGCGCCGCTGCGTCGTCGGCGCGGAGTCACCTAGTGCAG | 4720 fluorescence intensity (a.u.) |
| TATCAAATACTCCTATCTCTCACAACGTAGAATAAGGAAACGGAGTCACCTAGTGCAG | 6580 fluorescence intensity (a.u.) |
| GGCCCTTTCCACCCATAAGCTCGCGTCATTCGCTGATCGCCGGAGTCACCTAGTGCAG | 7040 fluorescence intensity (a.u.) |
| CTCTCCTCCTCCACCTCGCTGACGCTTTGTCCCTTTATTCCGGAGTCACCTAGTGCAG | 4890 fluorescence intensity (a.u.) |
| ATCATACTTATACACTACACGTGTATAGGTTTCCAAACACCGGAGTCACCTAGTGCAG | 5670 fluorescence intensity (a.u.) |
| CATCTTCCCTTACAATACCTCGACAGACTAACCATCGCCACGGAGTCACCTAGTGCAG | 3330 fluorescence intensity (a.u.) |

Shown with tabs: entries from further up.
Sequence	binding signal
ATTGATCCTATCTTATGATGCTGATGCGTTGTGTAGGGGTCGGAGTCACCTAGTGCAG	3920 fluorescence intensity (a.u.)
CTCTCTCCCCTCGCCTCGCCGCGCCGCTGCGTCGTCGGCGCGGAGTCACCTAGTGCAG	4720 fluorescence intensity (a.u.)
GGCCCTTTCCACCCATAAGCTCGCGTCATTCGCTGATCGCCGGAGTCACCTAGTGCAG	7040 fluorescence intensity (a.u.)

More entries:

| Sequence | binding signal |
| --- | --- |
| TCATAATGGTCACACGATGGCTATATTTCGTCGGCTTATTCGGAGTCACCTAGTGCAG | 3360 fluorescence intensity (a.u.) |
| ACTGTGATCCCAGTAAAGCTAAGCCAGCTAGGCAAGTTTACGGAGTCACCTAGTGCAG | 4760 fluorescence intensity (a.u.) |
| GCTCGGGGACACCTGAACACATCGGCTTTTGAGCCGCTCGCGGAGTCACCTAGTGCAG | 3160 fluorescence intensity (a.u.) |
| CCCGACAAAGAGTCTACCAAGAGAGGTGTGACATCACAGTCGGAGTCACCTAGTGCAG | 4880 fluorescence intensity (a.u.) |
| AACAAATAACCCTACAAAGTTGCACGAACAAATTCAACTCCGGAGTCACCTAGTGCAG | 3210 fluorescence intensity (a.u.) |
| ACTCCTTCTGGGCATAATTAGATGACGTTTCAGACAACCACGGAGTCACCTAGTGCAG | 3950 fluorescence intensity (a.u.) |
| AAATAATGACGTTCTATGTGAGTGATTATGCTAATTTCATCGGAGTCACCTAGTGCAG | 3780 fluorescence intensity (a.u.) |
| AAAAGCTCATCTAGAAGAGATTATTGGGTTATACTAGTCTCGGAGTCACCTAGTGCAG | 23800 fluorescence intensity (a.u.) |
| GCAGCGACTACTACTACGTCGAAATCGTAGCTAGCTAGGACGGAGTCACCTAGTGCAG | 3160 fluorescence intensity (a.u.) |
| TGCTTGCTTGCTCACAACCACATCAGATCATTGATCAATGCGGAGTCACCTAGTGCAG | 3860 fluorescence intensity (a.u.) |
| TAATAAGAGGCTGTAAGTCGGCTAAATGCTGAGGTGGAGGCGGAGTCACCTAGTGCAG | 8660 fluorescence intensity (a.u.) |
| TGGGTGGTGTGGCGGCGGTAGTAGCCAAGATAGGGGTCATCGGAGTCACCTAGTGCAG | 3170 fluorescence intensity (a.u.) |
| ACCTGATGAACGCGGCGGAATAGTTAATCTACGGGACGTGCGGAGTCACCTAGTGCAG | 3310 fluorescence intensity (a.u.) |
| TGTCCAAATGGCATGACTCACTTATATCCTAATAGGACATCGGAGTCACCTAGTGCAG | 7940 fluorescence intensity (a.u.) |
| TCTCAGCGTGCCTGTGTTGTGTACGTGTCATGGCAACGGGCGGAGTCACCTAGTGCAG | 9300 fluorescence intensity (a.u.) |
| ATCGACACGGCGCGACGCACACGCACGCAAACCAAATCTTCGGAGTCACCTAGTGCAG | 3220 fluorescence intensity (a.u.) |
| AGAGTTTAAGGATCTAGATGACACACCGCTACAAGTTTAACGGAGTCACCTAGTGCAG | 8740 fluorescence intensity (a.u.) |
| GACGCCTCGCTATTCTCGTCACACATTCGTTTTCCATCCTCGGAGTCACCTAGTGCAG | 3670 fluorescence intensity (a.u.) |
| GCACCATCCGACGTGCCAAATATCTCTAGCGTGTGATAATCGGAGTCACCTAGTGCAG | 4050 fluorescence intensity (a.u.) |
| TCGCGCGTGCCACGCACCCAGCACGTACGCGTGACGGAGACGGAGTCACCTAGTGCAG | 5260 fluorescence intensity (a.u.) |
| CATATAGTAGCGGTGGTGTGGAGAGTGTTTGTATTTCTGTCGGAGTCACCTAGTGCAG | 3200 fluorescence intensity (a.u.) |
